Measurements taken from publication doi:10.1101/2024.11.14.623552.
These are yes or no findings as the source states them, for the method shown. Binding seen in cells or lysates may run through a third protein. Binding calls can cover weak binding; strength is not graded here.

Biological target: T1, Kibra (Kib) (Drosophila) (UniProt Q9VFG8)
T1 sequence: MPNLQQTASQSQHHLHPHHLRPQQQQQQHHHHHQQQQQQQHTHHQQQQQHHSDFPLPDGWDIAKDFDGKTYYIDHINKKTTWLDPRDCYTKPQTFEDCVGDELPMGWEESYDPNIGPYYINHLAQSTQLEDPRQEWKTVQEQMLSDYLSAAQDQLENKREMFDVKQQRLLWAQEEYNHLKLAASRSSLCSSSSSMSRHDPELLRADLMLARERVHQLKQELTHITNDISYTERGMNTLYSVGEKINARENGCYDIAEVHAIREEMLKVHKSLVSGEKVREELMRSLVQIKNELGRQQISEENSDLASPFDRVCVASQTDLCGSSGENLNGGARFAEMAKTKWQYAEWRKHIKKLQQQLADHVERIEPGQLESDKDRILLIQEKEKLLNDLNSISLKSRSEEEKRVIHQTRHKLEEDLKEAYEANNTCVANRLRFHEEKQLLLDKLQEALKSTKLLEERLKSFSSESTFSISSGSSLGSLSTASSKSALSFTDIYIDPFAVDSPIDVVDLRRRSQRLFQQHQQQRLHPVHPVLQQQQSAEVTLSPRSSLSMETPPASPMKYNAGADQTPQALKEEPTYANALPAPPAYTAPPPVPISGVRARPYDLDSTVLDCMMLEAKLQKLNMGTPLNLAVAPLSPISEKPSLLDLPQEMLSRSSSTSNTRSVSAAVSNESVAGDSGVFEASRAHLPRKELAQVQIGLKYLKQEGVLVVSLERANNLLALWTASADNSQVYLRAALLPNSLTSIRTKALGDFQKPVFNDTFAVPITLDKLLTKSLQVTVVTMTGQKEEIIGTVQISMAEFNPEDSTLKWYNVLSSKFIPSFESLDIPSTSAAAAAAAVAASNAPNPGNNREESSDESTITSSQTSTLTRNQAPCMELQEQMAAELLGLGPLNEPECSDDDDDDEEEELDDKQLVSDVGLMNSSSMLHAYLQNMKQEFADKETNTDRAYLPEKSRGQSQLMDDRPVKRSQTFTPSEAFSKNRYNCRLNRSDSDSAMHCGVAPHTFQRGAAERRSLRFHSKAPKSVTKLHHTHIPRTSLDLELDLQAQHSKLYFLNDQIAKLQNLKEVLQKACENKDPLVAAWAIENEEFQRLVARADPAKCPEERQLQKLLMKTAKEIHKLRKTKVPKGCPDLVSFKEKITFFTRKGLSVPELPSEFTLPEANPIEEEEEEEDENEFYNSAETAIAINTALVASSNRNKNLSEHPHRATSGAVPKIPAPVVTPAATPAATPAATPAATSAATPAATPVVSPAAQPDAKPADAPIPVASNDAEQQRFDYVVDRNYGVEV
Test: co-IP

Well-rounded (Wrd) (Drosophila)
binding: binds
